In patent US5086054A, “Novel arylcycloalkanepolyalkylamines” (SRI International, priority 1990, dated 1992):

Test system: PCP RECEPTOR
Test: PCP receptor binding assay ([3H]-TCP displacement, brain membranes)
Set-up: species or system guinea-pig (male Hartley)
Description: This example illustrates testing of compounds in receptor binding assays.
Frozen brains from male Hartley guinea-pigs were obtained from Pel-Freeze (Rogers, Arkansas).
The brains plus cerebella were homogenized in 10 volumes (v/w) of 0.1M, pH 7.4, ice-cold Tris-HCl buffer with a Brinkmann polytron at setting 4 for 20 seconds. The homogenates were centrifuged at 20,000×g for 20 minutes at 4° C. The pellets were suspended in 10 volumes of ice-cold water and, after sitting on ice for 10 minutes, were centrifuged 30 minutes at 20,000×g at 4° C. The resulting pellets were resuspended in the above Tris buffer in ratio 1:100 (w/v) for σ receptor assays or in 5 mM Tris-HCl having pH 7.4, for PCP receptor assays. The final suspension was homogenized with a dounce glass-glass tissue grinder Wheaton "200", at small clearance (B), with three strokes before use. Two milliter aliquots of the brain membrane preparation, containing 1.7 mg of protein, were incubated in quadruplicate for one hour at 23° C. with competing mixture of ligand and radioligand. For σ receptors, [^3 H]-d-SKF-10,047, 2 nM was used. For PCP receptors, [^3 H] TCP [^3 H]-1-[1-(2-thienyl)cyclohexyl]piperidine), 1 nM was used. The nonspecific bindings were defined by 0.1 mM d-SKF-10,047 and 0.1 mM phencyclidine respectively for σ and PCP receptors. After incubation, free ligand was separated from bound ligand by rapid filtration through Whatman GF/C filters. The filters had been soaked before use in isoamyl alcohol-saturated water to prevent nonspecific [^3 H]-d-SKF-10,047 binding to the filter. In the PCP receptor assay, the filter was soaked in 0.5% polyethylenimine to reduce the filter binding of [^3 H]-TCP. After filtration, the trapped tissue was washed three times with 4 ml aliquots of 0.1 M ice-cold Tris buffer at pH 7.4 for σ receptors and 5 mM, ice-cold Tris buffer pH 7.4 for PCP receptors. The filters were transferred to 5 ml of liquid scintillation fluid and the retained radioactivity was measured by liquid scintillation spectrometry.
Programs in Biomed. 17:107 (1983)].

[1] = Table 1, slope of dose response curve

Row | Structure (SMILES) | PCP RECEPTOR SLOPE [1] | PCP RECEPTOR SLOPE (Table 2) | PCP RECEPTOR SLOPE (Table 3)
1 | c1ccc(C2(N3CCOCC3)CCCCC2)cc1 [Compound 10, 4-(1-phenylcyclohexyl)morpholine, reference compound] | 0.93 ± 0.03 | – | –
2 | c1ccc(C2(N3CCCC3)CCCCC2)cc1 [Compound 5, 1-(1-phenylcyclohexyl)pyrrolidine, reference compound] | 0.84 ± 0.04 | – | –
3 | CCN(CC)C1(c2ccccc2)CCCCC1 [Compound 13, N,N-diethyl-1-phenylcyclohexylamine, reference compound] | 0.96 ± 0.01 | – | –
4 | COc1cccc(C2(CN3CCCC3)CCCCC2)c1 [Compound 33] | – | 0.89 ± 0.08 | –
5 | c1ccc(C2(CN3CCCCC3)CC2)cc1 [Compound 45] | – | – | 0.83 ± 0.03
6 | c1ccc(C2(CCN3CCCC3)CCCCC2)cc1 [Compound 7] | 0.71 ± 0.08 | – | –
7 | c1ccc(C2(N3CCCCC3)CCCCC2)cc1 [Compound 1, 1-(1-phenylcylohexyl)piperidine, reference compound] | 0.78 ± 0.02 | – | –
8 | c1ccc(C2(CN3CCCC3)CCCCC2)cc1 [Compound 6] | 0.85 ± 0.04 | 0.85 ± 0.04 | –
9 | Clc1cccc(C2(CN3CCCC3)CCCCC2)c1 [Compound 32] | – | 1.78 ± 0.09 | –
10 | Oc1cccc(C2(CN3CCCC3)CCCCC2)c1 [Compound 29] | – | 0.79 ± 0.02 | –
11 | c1ccc(C2(CN3CCCCC3)CCCCC2)cc1 [Compound 2] | 0.84 ± 0.02 | 0.84 ± 0.02 | 0.84 ± 0.02
12 | Clc1cccc(C2(CN3CCCCC3)CCCCC2)c1 [Compound 25] | – | 0.84 ± 0.05 | –
13 | CN(C)C1(c2ccccc2)CCCCC1 [Compound 17, N,N-dimethyl-1-phenylcyclohexylamine, reference compound] | 0.81 ± 0.01 | – | –
